In US4704384A, “Aziridinyl quinone antitumor agents” (priority 1981, dated 1987):
Some entries share one result that the patent states for a list of compounds.

Tested on: lymphoid leukemia L1210

SMILES | activity in IP L1210
CC1CN1C1=C(Cl)C(=O)C(N2CC2C)=C(Cl)C1=O (stereo not drawn) [Compound 2] | only compound No. 9 was active
CC1(C)CN1C1=C(Cl)C(=O)C(N2CC2(C)C)=C(Cl)C1=O [Compound 3] | only compound No. 9 was active
CCSC1=C(N2CC2)C(=O)C(SCC)=C(N2CC2)C1=O [Compound 5] | only compound No. 9 was active
CCCSC1=C(N2CC2)C(=O)C(SCCC)=C(N2CC2)C1=O [Compound 6] | only compound No. 9 was active
CCOC(=O)NC1=C(N2CC2)C(=O)C(NC(=O)OCC)=C(N2CC2)C1=O [Compound 9, 2,5-DIAZIRIDINYL-3,6-BIS(CARBOETHOXYAMINO)-1,4-BENZOQUINONE] | only compound No. 9 was active
CCOC(=O)NC1=C(N2CC2C)C(=O)C(NC(=O)OCC)=C(N2CC2C)C1=O (stereo not drawn) [Compound 10] | only compound No. 9 was active
CCOC(=O)NC1=C(N2CC2(C)C)C(=O)C(NC(=O)OCC)=C(N2CC2(C)C)C1=O [Compound 11] | only compound No. 9 was active
CCOC(=O)NC1=C(NCCCl)C(=O)C(NC(=O)OCC)=C(NCCCl)C1=O [Compound 12] | only compound No. 9 was active
O=C1C(Br)=C(N2CC2)C(=O)C(Br)=C1N1CC1 [Compound 15] | only compound No. 9 was active
CC1CN1C1=C(Br)C(=O)C(N2CC2C)=C(Br)C1=O (stereo not drawn) [Compound 16] | only compound No. 9 was active
CC1(C)CN1C1=C(Br)C(=O)C(N2CC2(C)C)=C(Br)C1=O [Compound 17] | only compound No. 9 was active
CC(=O)NC1=C(N2CC2(C)C)C(=O)C(NC(C)=O)=C(N2CC2(C)C)C1=O [Compound 21] | only compound No. 9 was active
